# Measurements from PubChem BioAssay AID1508600 (Functional Genomics Laboratory (NCATS/FGL), 2020).
# In all, about 53,000 sequences went through this assay and about 3,700 (7%) were called active.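 Rule for the calls: active = gene knockdowns whose robust z-score for IL-1 alpha signal is at least 2 or at most -2, so actives lie on both sides; inactive = the rest.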 This is one part of the list.
# Assay: Components of the Cytosolic LPS Sensing Pathway: Gene Identification via Genome-wide siRNA Screen;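 note: robust z of the log signal after scaling to non-targeting control siRNA wells of the plate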
# Conditions: RAW264.7 macrophages, IL-1a HTRF, actives lie on both sides, screened at 100 nM (by protocol), cells primed 5 h with Pam3CSK4 first
# Procedure, shortened: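 Supernatant IL-1a by HTRF from RAW264.7 cells primed with Pam3CSK4 (5 hours) and transfected with LipidA (24 hour) after 48h siRNA knockdown at 100 nM; cell viability checked with CellTiter-Glo.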
row,Sequence,z-score
1,GCAAAACCUAACUAUGUUUTT against Mterf3,inactive: -0.879
2,GGACUGUUAACUCUUGGCGTT against Slc7a1,inactive: -1.16
3,GAUCCACCCAUCCUACUGUTT against Rd3,inactive: 0.0984
4,CCAACACAUACCAACAGGUTT against Rbm42,inactive: -0.984
5,CCUGUCCUGAUGGUGAAACTT against Serpinb3c,inactive: 0.619
6,GCCGUUUAUUCAUUGCACUTT against Cdc123,inactive: 1.21
7,CCGUGAUAAUGUAACACCUTT against Prtg,inactive: 0.0383
8,GGGUUGUUCCAAAUGCUAGTT against Skp1,inactive: -0.65
9,GCUAUUGUAACACCUCAGGTT against Lef1,inactive: -0.899
10,GCCUGUCACUUUCUGAUAATT against Tpm2,inactive: 1.15
11,GGCUGCUGUUAACAAGCUGTT against Wdr13,active: -2.41
12,CGGAAUCUAGGCUUGUGCATT against Timp1,inactive: -0.661
13,GGCAUCCUGUGUUUUAACUTT against Mmp3,inactive: 0.25
14,GGACACAAGCCUAUUCCAATT against Rffl,inactive: 1.59
15,GCUAGGACUACAGCUGGGATT against Snrnp48,active: -2.56
16,CCCUGUACACAGAAGGACATT against Dolk,inactive: -0.857
17,GCAUUCAUCAGGGUUGAUUTT against Wdr20,active: -2.43
18,GCACAAAUAAAGAUAAGAGTT against Uox,inactive: -0.178
19,GCCCUCGUUCAUACCGUAUTT against Olfr332,inactive: 0.527
20,GGACAGACAAAUACAAGAGTT against Tmco1,inactive: 0.428
21,GGAUAACCUUAACUUCUGATT against Usp48,inactive: 0.625
22,GGACUCCUAAUGAAUAAUCTT against Wee2,active: 2.06

# Part of the list above, tab-delimited.
row	Sequence	z-score
2	GGACUGUUAACUCUUGGCGTT against Slc7a1	inactive: -1.16
3	GAUCCACCCAUCCUACUGUTT against Rd3	inactive: 0.0984

# The results go on:

row,Sequence,z-score
1,CCUCGUUCCUAUCAUUAACTT against Sdccag8,inactive: 0.58
2,CCAAGUAUUUUUCUCCUUATT against Stk38,inactive: 1.69
3,UCUCCUUCAUUCCAUGCCUTT against Olfr237,inactive: -1.06
4,GGAAAAGGUUAAGAAAGCATT against Krr1,active: -2.53
5,GGGUCCAUUGUCAAUGUCUTT against Cbr2,inactive: -1.92
6,GGUCUUCCUGUUCUUGCUCTT against Olfr1009,inactive: 0.115
7,GGAAACUGUGGAUGAAAAGTT against Olfr1230,inactive: 0.266
8,CCAAGUACCCUGAGAGUUUTT against Pnpla6,inactive: 1.46
9,GGUGAAAGACACUUGAAUUTT against Cdk2,inactive: 0.625
10,GGUCCGAGAGACAUUGGCATT against Lmx1b,inactive: -0.118
11,GGAAAUAAGCAGCGCAUGCTT against Ippk,inactive: -1.27
12,GCCGGUUGGAACAAAAGGCTT against E130018O15Rik,inactive: 0.993
13,GGACUUGAAGCUGCACCUATT against Atp6v0d1,inactive: -0.343
14,GGACAUUUUUGUCUCUAAATT against Pacc1,inactive: 0.167
15,CCCUAUACUCAUUUGUAAGTT against Ube2a,inactive: 0.68
16,CGUAACAAGCAGGAAGCAATT against Xlr4b,inactive: -0.467
17,GGAGAGGAUCCAAUGUCUCTT against Ptpn5,inactive: 1.86
18,GGCUAUACACGCAUCAAGCTT against Dtx1,inactive: 0.667
19,GCGACAAGACUUCUUGAGCTT against Epha8,inactive: -0.304
20,CCAAAGCACAGCAAUUAAUTT against Eif3a,inactive: -0.836
21,CCAAACGGAAGUAUCUUAUTT against Tmem128,inactive: 0.246
22,GGCCUUCGAAAUAAUUCUGTT against Ppp1r14d,inactive: -0.605

row,Sequence,z-score
1,GCAUCGUCUAUAUUUUUGGTT against Timm50,inactive: -1.56
2,GGACUUCAUGGAAAAUCUGTT against Pofut1,inactive: -0.656
3,GGAUGAGUCUUUAGAAGAATT against Pramel25,inactive: 0.468
4,CGAGCUGUCCAAACACUGUTT against Cenpu,inactive: -0.135
5,CCAUGGGUACCUAUAUCGUTT against Gfod2,inactive: -0.622
6,GGAUUUGUCUUCUUUUGUCTT against Kif3b,inactive: 1.58
7,GGUGUGGUACGACAUGUUCTT against Zmat5,inactive: -0.641
8,GCAUGGAGAUUCUGUGCGGTT against Trim45,inactive: -1.13
9,GGCAAUUGUACAGGAGAUUTT against Iqcc,inactive: 0.98
10,GGACAUAAAAAUACGCCAGTT against Hsf1,inactive: -1.38
11,CGCCGAAAGACAAGAGUAUTT against Tgm3,inactive: -0.847
12,GGUAUGUUUGCAUCUUUUUTT against Nkain3,inactive: 0.194
13,GGAGCUCAGAUGCAAUGAGTT against Klf17,inactive: 0.517
14,GGAGAACAUAAAAAUGGUGTT against Stk39,inactive: -0.0786
15,GCUUUCUUUUAUGGCACGGTT against Tmem86b,inactive: -0.396
16,GGAAGGUUCCCUUGAGUUCTT against Bcdin3d,inactive: -0.202
17,GCGGUCCAGACAGCAAAUATT against Ptbp2,inactive: 0.42
18,CCACGGAGCAGAUAUGCUGTT against Nprl3,inactive: -1.22
19,GGCCGUUUCCUACCUCAUGTT against Cckbr,inactive: -1.09
20,GGAUAGUCUCCUCAAAGAATT against Trmt10b,inactive: 0.7
21,GGAAAACUUCACUUUCUUCTT against Esyt2,inactive: 0.673
22,GGACACUAUGCAAUCACCCTT against Rnf216,inactive: -0.481

row,Sequence,z-score
1,CCGACCAGAAGCUUUAAAGTT against Msrb1,inactive: 1.05
2,GGAGUUCCUCAUGAAGAUGTT against Tmem241,inactive: -1.27
3,GGCUGUCAGAACCAACUACTT against Tshb,inactive: 0.214
4,CCAUACAUCCGAGAGUUUGTT against Snrnp70,active: 2.37
5,GCUUUACCUGGAGAAAAUGTT against 4931422A03Rik,inactive: -1.44
6,GGAGUUUUUGCAUGAAUUGTT against Folh1,inactive: -0.106
7,GGGAAAAGCUAAAAUACAATT against Gtf2h1,inactive: 1.54
8,GGUGCUGAGCAAUCUCAAGTT against Slc35a4,inactive: 0.834
9,GCCCUCUACAACUUUGACCTT against Sh3rf2,inactive: 0.664
10,GGAAGAAAAAGAGGACACATT against Wnk4,inactive: -0.393
11,GGACUAUCUCUUUAUGGAATT against Csf1,inactive: -0.0449
12,CGUCAUGACAAACUUAGGATT against Calm1,inactive: -1.14
13,GGAUUGUCAUAACAGAAUUTT against Rpe65,inactive: -0.344
14,CCAAAGCUGAGGUUGUAACTT against Sstr4,inactive: 0.642
15,GGAUUCUGGAGAAUAUGAATT against Tgm5,inactive: 1.03
16,GGAUCAGAUGUCAGCUUCATT against Stx6,inactive: -1.03
17,GGUUUUUACAAUCAUGAUGTT against Fer,inactive: -0.692
18,CCUAUGAUGUAAUGACCCGTT against Slc25a29,inactive: -1.19
19,GGAUUGGAAGAAAAAGGAGTT against Lair1,inactive: -1.38
20,GGUCAAAGCAAGAAGAUGATT against Septin9,inactive: -1.34
21,GGAUCGACUGCCAAGGAAUTT against Klhdc2,inactive: 0.0628
22,CCAGUGGUUGCUAUGGUCUTT against Nme1,inactive: -0.13

# Reprinted at random: 3 records from the list.
row,Sequence,z-score
9,GCUAUUGUAACACCUCAGGTT against Lef1,inactive: -0.899
4,GGAAAAGGUUAAGAAAGCATT against Krr1,active: -2.53
1,GCAAAACCUAACUAUGUUUTT against Mterf3,inactive: -0.879

# The list continues.

row,Sequence,z-score
1,GGCAGAAAAGAUAGCAUCUTT against Cops4,inactive: 0.413
2,GCAUUGGUAACCAAAUCAUTT against Dram2,inactive: 1.71
3,GCACAUGCAGACAGUUACCTT against Kiss1r,inactive: 1.37
4,GGCCUUGAGACUAUCAAUGTT against Emilin3,inactive: 1.1
5,GGCGACUUUUGCAUCGCUUTT against Spink2,inactive: 1.53
6,GGCCACAUGAGGAAUGACGTT against Slc20a2,inactive: 1.08
7,GCCUGAAUUUAGUGUUAAGTT against Hnmt,inactive: 1.72
8,CCAACGAAGCCAAUAAAUGTT against Pmis2,active: -2.12
9,GGGCCCGAUGAAGCAAAAATT against Hnrnpr,inactive: -1.49
10,GCUGUUUUAUCUCCAAUGGTT against Araf,inactive: 1.73
11,GGACUAUGUCUUUGACAAUTT against Grhl1,inactive: -0.166
12,GGUCCCUGUAGAAAAACUGTT against Asrgl1,inactive: -0.563
13,GGCUCCACAAACCUUCCUUTT against D830014E11Rik,inactive: -0.416
14,GGGUAUCCUUUGGUGGUGUTT against Prss32,inactive: 0.766
15,CAAGAAGGUCAUGUUAUUGTT against Olfr106-ps,inactive: 0.495
16,GGAGUUCAUUCUGGAUAUCTT against Matn2,inactive: 1.24
17,GGAGUAUAUCCAAAGAAUUTT against Hook2,inactive: 0.111
18,GUCCCAGUACUUCUUGUUUTT against Vmn1r27,inactive: 0.675
19,GGAGACCUUUGCUCAUCUCTT against Hbb-bh1,inactive: -1.08
